Drawing on patent publication US20050244921A1, this text covers binding for 1 molecule.

No constants are given. Whether binding was seen depends on the method and setting. Some binding calls cover weakened binding; strength is not graded here. Tags and fused reporters may be left off the sequences shown.

The assay deals with Polyhistidine-tagged DsRed K83R (Discosoma sp.). The experiment in a line: SDS-PAGE, 200 mM DTT, not heated.

B1: Polyhistidine-tagged DsRed K83R (protein)
chain: MRGSHHHHHHGMASMTGGQQMGRDLYDDDDKDPMRSSKNVIKEFMRFKVRMEGTVNGHEFEIEGEGEGRPYEGHNTVKLKVTKGGPLPFAWDILSPQFQYGSKVYVKHPADIPDYRKLSFPEGFKWERVMNFEDGGVVTVTQDSSLQDGCFIYKVKFIGVNFPSDGPVMQKKTMGWEASTERLYPRDGVLKGEIHKALKLKDGGHYLVEFKSIYMAKKPVQLPGYYYVDSKLDITSHNEDYTIVEQYERTEGRHHLFL
B1: the binding result is “binds”.
